The test system of this assay is L1210 leukemia ip in BDF1 mice, survival T/C. The experiment in a line: NCI In Vivo Anticancer Drug Screen. Data for tumor model L1210 Leukemia (intraperitoneal) in B6D2F1 (BDF1) mice. As to conditions: higher T/C = longer survival.
Setting [1] is: T/C endpoint: mean survival time, dose: 100.0 mg/kg/injection, schedule: Q04DX003 (ip), vehicle: saline with Tween-80.
[2] abbreviates: T/C endpoint: mean survival time, dose: 200.0 mg/kg/injection, schedule: Q01DX009 (ip), vehicle: saline with Tween-80.
Where [3] appears, read: T/C endpoint: mean survival time, dose: 200.0 mg/kg/injection, schedule: Q04DX003 (ip), vehicle: saline with Tween-80.
[4] abbreviates: T/C endpoint: mean survival time, dose: 400.0 mg/kg/injection, schedule: Q01DX009 (ip), vehicle: saline with Tween-80.
Where [5] appears, read: T/C endpoint: mean survival time, dose: 400.0 mg/kg/injection, schedule: Q04DX003 (ip), vehicle: saline with Tween-80.
[6] abbreviates: T/C endpoint: mean survival time, dose: 200.0 mg/kg/injection, schedule: Q04DX002 (ip), vehicle: Klucel (hydroxypropylcellulose) (HPC).
Setting [7] is: T/C endpoint: mean survival time, dose: 100.0 mg/kg/injection, schedule: Q04DX003 (ip), vehicle: saline.
The mark [8] stands for this setting: T/C endpoint: mean survival time, dose: 400.0 mg/kg/injection, schedule: Q04DX002 (ip), vehicle: saline.
[9] abbreviates: T/C endpoint: mean survival time, dose: 400.0 mg/kg/injection, schedule: Q04DX003 (ip), vehicle: saline.
Where [10] appears, read: T/C endpoint: mean survival time, dose: 200.0 mg/kg/injection, schedule: Q04DX003 (ip), vehicle: saline.

The list does not hold the whole screen: it is rich in T/C values a quarter to a half above the control, in often repeated tests (any T/C) and in doses without a T/C. Other doses and runs of a compound stand elsewhere. T/C gives the treated animals as a percentage of the vehicle group. Some doses have a count of surviving animals in place of a T/C: the source holds a T/C of zero for them, seemingly a mark for toxic or unscored doses. Some survivor counts are full or nearly so, which does not show that the dose was tolerated: the source hardly ever lists a survival T/C far under the control, and the zero likely stands for such cases as well. Survivors were counted at the toxicity check, usually on the fifth day, unless a day is given; later deaths do not show. Schedules are NCI's codes, read here as Q, the interval in days (D) or hours (H), X, the number of doses. Some doses were run more than once; their values stand side by side, smallest first. Some schedules carry Z or #; the key to these is not given. Where survival is the endpoint, this PubChem deposit counts one and a half times the control or more as active, and values a quarter to a half above the control carry no call in these data; other NCI protocols may use other cut-offs. Some T/C values are followed by the survivors on the day toxicity was checked, most often the fifth; without a count, all were alive then.

`CCOC(=O)c1ccc(NC(=O)Nc2ccc(OC)cc2OC)cc1`: the T/C was 86, 87, 89 % of control (T/C endpoint: mean survival time, dose: 100.0 mg/kg/injection, schedule: Q01DX009 (ip), vehicle: saline with Tween-80, evaluated on day 20); 87 and 95 % of control (T/C endpoint: mean survival time, dose: 100.0 mg/kg/injection, schedule: Q01DX009 (ip), vehicle: saline with Tween-80, evaluated on day 30); 90 [5 of 6 alive] and 100 % of control [4 of 6 alive] under setting [4]. The survivor count (T/C endpoint: mean survival time, dose: 100.0 mg/kg/injection, schedule: Q01DX009 (ip), vehicle: saline with Tween-80) is on record as 6 of 6; the survivor count under setting [1] is listed as 6 of 6; the survivor count under setting [2] is 3 of 3 and 6 of 6; the survivor count under setting [3] is listed as 6 of 6; the survivor count under setting [4] was 3 of 3; the survivor count under setting [5] is 6 of 6.

With `C(#[C][Sn]([c]1ccccc1)([c]1ccccc1)[c]1ccccc1)c1ccccc1`, the survivor count is 0 of 3 and 1 of 3 (T/C endpoint: mean survival time, dose: 100.0 mg/kg/injection, schedule: Q04DX002 (ip), vehicle: Klucel (hydroxypropylcellulose) (HPC)); 0 of 3 under setting [6]; 0 of 3 (T/C endpoint: mean survival time, dose: 400.0 mg/kg/injection, schedule: Q04DX002 (ip), vehicle: Klucel (hydroxypropylcellulose) (HPC)).

In the case of `CC(C)CCNCC(C)(C)OC(=O)c1ccc(N)cc1`, the survivor count is given as 1 of 6 (T/C endpoint: mean survival time, dose: 75.0 mg/kg/injection, schedule: Q01DX001 (ip), vehicle: acetone); 0 of 6 (T/C endpoint: mean survival time, dose: 150.0 mg/kg/injection, schedule: Q01DX001 (ip), vehicle: acetone); 0 of 6 (T/C endpoint: mean survival time, dose: 300.0 mg/kg/injection, schedule: Q01DX001 (ip), vehicle: acetone).

`O=C1C=C(N2CC2)C(=O)C=C1N1CC1`: the T/C (T/C endpoint: mean survival time, dose: 5.0 mg/kg/injection, schedule: Q01DX001 (ip), vehicle: other) was 145 % of control. Also, the survivor count reads like this: (T/C endpoint: mean survival time, dose: 9.5 mg/kg/injection, schedule: Q01DX001 (ip), vehicle: other) 6 of 6; (T/C endpoint: mean survival time, dose: 19.0 mg/kg/injection, schedule: Q01DX001 (ip), vehicle: other) 3 of 6; (T/C endpoint: mean survival time, dose: 38.0 mg/kg/injection, schedule: Q01DX001 (ip), vehicle: other) 0 of 6; (T/C endpoint: mean survival time, dose: 75.0 mg/kg/injection, schedule: Q01DX001 (ip), vehicle: other) 0 of 6; (T/C endpoint: mean survival time, dose: 150.0 mg/kg/injection, schedule: Q01DX001 (ip), vehicle: other) 0 of 6; (T/C endpoint: mean survival time, dose: 300.0 mg/kg/injection, schedule: Q01DX001 (ip), vehicle: other) 0 of 6.

Take `O=C1N(CO)C2C(N1CO)N(CO)C(=O)N2CO` (centres undefined): the T/C under setting [7] was 127 % of control.

Turning to `CN=C(NC)c1ccc(NC(=O)c2ccc(C(=O)Nc3ccc(C(=NC)NC)cc3)c([N+](=O)[O-])c2)cc1`, the survivor count runs as follows: (T/C endpoint: mean survival time, dose: 15.0 mg/kg/injection, schedule: Q01DX Z (ip), vehicle: saline) 1 of 6 and 3 of 6; (T/C endpoint: mean survival time, dose: 30.0 mg/kg/injection, schedule: Q01DX Z (ip), vehicle: saline) 0 of 6; (T/C endpoint: mean survival time, dose: 60.0 mg/kg/injection, schedule: Q01DX Z (ip), vehicle: saline) 0 of 6; (T/C endpoint: mean survival time, dose: 120.0 mg/kg/injection, schedule: Q01DX Z (ip), vehicle: saline) 0 of 6.

For `O=C(Nc1ccccc1)Oc1ccc(Cl)cc1Cc1ccccc1`, under setting [6], the survivor count is 3 of 3.

`Cc1cc(C)c(C)c(C(C)O)c1C` (centres undefined): under setting [5], the survivor count was 6 of 6.

As for `CCOP(=O)(OCC)OC(=O)N(CC)CC`, the survivor count under setting [8] is 1 of 3.

As to `CC(C)C(C)/C=C/C(C)C1CCC2C3CCC4CC(O)CCC4(C)C3CCC12C` (centres undefined), the survivor count (T/C endpoint: mean survival time, dose: 400.0 mg/kg/injection, schedule: Q01DX001 (ip), vehicle: Klucel (hydroxypropylcellulose) (HPC)) is recorded as 3 of 3.

Take `NC(=O)OCC1OC(n2ccc(=O)[nH]c2=O)C(O)C1O` (centres undefined): the T/C (T/C endpoint: mean survival time, dose: 200.0 mg/kg/injection, schedule: Q01DX005 (ip), vehicle: saline) is 125 % of control [4 of 6 alive].

Regarding `Cc1cc2nc(SCC(=O)O)[nH]c2cc1C`, where the note is “T/C endpoint: mean survival time, dose: 400.0 mg/kg/injection, schedule: Q01DX009 (ip), vehicle: gum acacia”, the survivor count is listed as 5 of 5.

For the compound `CSc1ccccc1C1CCCCCC1OS(=O)(=O)c1ccc(C)cc1` (centres undefined), the survivor count (T/C endpoint: mean survival time, dose: 60.0 mg/kg/injection, schedule: Q01DX001 (ip), vehicle: carboxymethylcellulose (CMC)) is on record as 1 of 6.

With `O=[N+]([O-])c1ccccc1SNc1ccccc1`, the survivor count (T/C endpoint: mean survival time, dose: 200.0 mg/kg/injection, schedule: Q04DX003 (ip), vehicle: Klucel (hydroxypropylcellulose) (HPC)) is recorded as 3 of 6.

Take `CN(C)N=C1CCC(=NN(C)C)CC1`: the survivor count under setting [9] was 0 of 6.

Consider `CC(=C(C#N)C#N)c1ccccc1`, for which the survivor count was 6 of 6 under setting [1], 0 of 6 under setting [3] and 0 of 6 under setting [5].

With `O=C(O)COc1c(Cl)cc(Cl)c2cccnc12`, the survivor count (T/C endpoint: mean survival time, dose: 400.0 mg/kg/injection, schedule: Q01DX001 (ip), vehicle: carboxymethylcellulose (CMC)) was 1 of 4.

Take `O=C(C[P+](c1ccccc1)(c1ccccc1)c1ccccc1)Nc1ccccc1`: the survivor count (T/C endpoint: mean survival time, dose: 150.0 mg/kg/injection, schedule: Q01DX009 (ip), vehicle: Klucel (hydroxypropylcellulose) (HPC)) was 0 of 6 and the survivor count (T/C endpoint: mean survival time, dose: 300.0 mg/kg/injection, schedule: Q01DX009 (ip), vehicle: Klucel (hydroxypropylcellulose) (HPC)) is 0 of 6.

In the case of `CN(CCN(CCCl)c1ccc(N)cc1)c1ccc(N)cc1`, the survivor count under setting [7] was 0 of 6, the survivor count under setting [10] is on record as 0 of 6 and the survivor count under setting [9] was 0 of 6.

As to `NC1(CO)COC(c2ccccc2)OC1` (centres undefined), the T/C (T/C endpoint: mean survival time, dose: 25.0 mg/kg/injection, schedule: Q01DX009 (ip), vehicle: saline) is 125 % of control [5 of 6 alive]. In addition, the survivor count runs as follows: (T/C endpoint: mean survival time, dose: 200.0 mg/kg/injection, schedule: Q01DX009 (ip), vehicle: saline sonified) 2 of 6; under setting [10], 2 of 6; (T/C endpoint: mean survival time, dose: 400.0 mg/kg/injection, schedule: Q01DX009 (ip), vehicle: saline sonified) 0 of 6; under setting [9], 1 of 6.

Take `CCCCNC(=S)NCCCN(C)C`: the survivor count (T/C endpoint: mean survival time, dose: 400.0 mg/kg/injection, schedule: Q04DX003 (ip), vehicle: Klucel (hydroxypropylcellulose) (HPC)) is reported as 3 of 6.

`CC1CC/C(=N\N(C)C)c2ccccc21` (centres undefined): the survivor count under setting [2] is 4 of 6 and the survivor count under setting [4] is reported as 0 of 6.

`CC1OC(OC2C(O)CC(OC3C(O)CC(OC4CCC5(C)C(CCC6C5CCC5(C)C(C7=CC(=O)OC7)CCC65O)C4)OC3C)OC2C)CC(O)C1O` (centres undefined): the survivor count was 6 of 6 (T/C endpoint: mean survival time, dose: 64.0 mg/kg/injection, schedule: Q01DX015 (sc), vehicle: steroid suspending solution) and 7 of 8 (T/C endpoint: median survival time, dose: 16.0 mg/kg/injection, schedule: Q04DX003 (iv), vehicle: water).

For `CCCNC(C)(C)C(SSS)c1cccs1` (centres undefined), the survivor count (T/C endpoint: mean survival time, dose: 400.0 mg/kg/injection, schedule: Q04DX003 (ip), vehicle: alcohol) is 4 of 6.

In the case of `Nc1ccccc1Sc1ccc2c3c(cccc13)C(=O)N(c1ccccc1)C2=O`, the survivor count (T/C endpoint: mean survival time, dose: 200.0 mg/kg/injection, schedule: Q04DX002 (ip), vehicle: saline with Tween-80) is recorded as 3 of 3.

In the case of `Cc1ncc(CO)c(/C=N/OCc2ccc(OCc3ccccc3)cc2)c1O`, the survivor count under setting [5] was 3 of 6.

`CCN(CC)CC(=O)CC12CC3CC(CC(C3)C1)C2`: the survivor count is, setting by setting: (T/C endpoint: mean survival time, dose: 12.5 mg/kg/injection, schedule: Q04DX002 (ip), vehicle: saline) 1 of 3; (T/C endpoint: mean survival time, dose: 25.0 mg/kg/injection, schedule: Q04DX002 (ip), vehicle: saline) 0 of 3; (T/C endpoint: mean survival time, dose: 50.0 mg/kg/injection, schedule: Q04DX002 (ip), vehicle: saline) 0 of 3; (T/C endpoint: mean survival time, dose: 100.0 mg/kg/injection, schedule: Q04DX002 (ip), vehicle: saline) 0 of 3; (T/C endpoint: mean survival time, dose: 200.0 mg/kg/injection, schedule: Q04DX002 (ip), vehicle: saline) 0 of 3; under setting [8], 0 of 3.

The record behind these values is PubChem BioAssay AID248 (DTP/NCI, 2004).
